The supplement of paper PMC10849652
This is one part of the list.

Protein sequences, listed by entry. Tags and fused reporters are not part of them. Lines headed by an entry give the natural chain unless they say otherwise; changes in a name come on top.
UniProt Q9NWL6: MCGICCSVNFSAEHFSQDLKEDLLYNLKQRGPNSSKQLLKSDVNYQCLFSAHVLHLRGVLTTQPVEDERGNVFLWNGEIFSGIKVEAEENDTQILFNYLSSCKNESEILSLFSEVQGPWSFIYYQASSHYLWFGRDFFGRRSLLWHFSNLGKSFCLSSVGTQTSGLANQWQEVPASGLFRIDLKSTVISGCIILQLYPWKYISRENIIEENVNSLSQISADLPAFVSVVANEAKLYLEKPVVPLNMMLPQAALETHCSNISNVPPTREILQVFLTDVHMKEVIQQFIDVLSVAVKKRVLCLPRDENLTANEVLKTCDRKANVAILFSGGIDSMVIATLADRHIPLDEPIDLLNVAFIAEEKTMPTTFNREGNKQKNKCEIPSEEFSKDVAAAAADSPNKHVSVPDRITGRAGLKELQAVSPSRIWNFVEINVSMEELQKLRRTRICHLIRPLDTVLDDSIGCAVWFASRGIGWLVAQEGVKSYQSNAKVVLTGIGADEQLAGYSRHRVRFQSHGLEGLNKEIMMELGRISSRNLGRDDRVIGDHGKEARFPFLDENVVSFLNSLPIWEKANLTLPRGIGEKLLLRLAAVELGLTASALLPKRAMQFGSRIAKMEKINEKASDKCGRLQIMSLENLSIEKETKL
UniProt P98198: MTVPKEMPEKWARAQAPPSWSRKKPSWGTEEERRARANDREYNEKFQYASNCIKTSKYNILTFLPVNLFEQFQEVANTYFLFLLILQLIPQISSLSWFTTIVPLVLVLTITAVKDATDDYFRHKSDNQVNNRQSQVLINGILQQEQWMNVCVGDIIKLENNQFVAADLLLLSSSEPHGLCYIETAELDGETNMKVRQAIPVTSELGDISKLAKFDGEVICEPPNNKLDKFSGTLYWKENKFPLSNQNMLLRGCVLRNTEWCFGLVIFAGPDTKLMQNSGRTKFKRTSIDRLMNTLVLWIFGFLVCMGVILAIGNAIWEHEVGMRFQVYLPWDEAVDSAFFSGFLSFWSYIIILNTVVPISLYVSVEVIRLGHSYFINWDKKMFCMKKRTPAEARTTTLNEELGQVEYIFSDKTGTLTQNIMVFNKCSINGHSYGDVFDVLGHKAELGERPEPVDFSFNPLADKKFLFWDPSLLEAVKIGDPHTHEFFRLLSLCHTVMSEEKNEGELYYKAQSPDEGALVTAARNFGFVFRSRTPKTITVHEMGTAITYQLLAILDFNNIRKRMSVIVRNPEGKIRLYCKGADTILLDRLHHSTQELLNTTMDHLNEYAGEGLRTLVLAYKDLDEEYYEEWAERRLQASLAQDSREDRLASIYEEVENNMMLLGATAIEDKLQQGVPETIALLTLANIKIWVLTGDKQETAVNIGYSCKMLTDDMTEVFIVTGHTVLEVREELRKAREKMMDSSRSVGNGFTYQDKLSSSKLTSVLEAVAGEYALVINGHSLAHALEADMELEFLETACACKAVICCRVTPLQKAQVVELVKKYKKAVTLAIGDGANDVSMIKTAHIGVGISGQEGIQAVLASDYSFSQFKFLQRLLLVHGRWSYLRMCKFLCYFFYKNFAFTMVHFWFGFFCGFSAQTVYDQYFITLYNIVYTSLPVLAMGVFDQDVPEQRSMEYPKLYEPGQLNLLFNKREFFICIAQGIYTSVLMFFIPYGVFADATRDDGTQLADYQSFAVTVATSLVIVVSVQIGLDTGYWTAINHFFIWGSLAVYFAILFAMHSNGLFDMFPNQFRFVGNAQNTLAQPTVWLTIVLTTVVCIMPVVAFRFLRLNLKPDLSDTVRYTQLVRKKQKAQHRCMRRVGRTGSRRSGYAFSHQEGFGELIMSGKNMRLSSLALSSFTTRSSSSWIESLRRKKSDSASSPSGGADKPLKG
UniProt Q9NWX5: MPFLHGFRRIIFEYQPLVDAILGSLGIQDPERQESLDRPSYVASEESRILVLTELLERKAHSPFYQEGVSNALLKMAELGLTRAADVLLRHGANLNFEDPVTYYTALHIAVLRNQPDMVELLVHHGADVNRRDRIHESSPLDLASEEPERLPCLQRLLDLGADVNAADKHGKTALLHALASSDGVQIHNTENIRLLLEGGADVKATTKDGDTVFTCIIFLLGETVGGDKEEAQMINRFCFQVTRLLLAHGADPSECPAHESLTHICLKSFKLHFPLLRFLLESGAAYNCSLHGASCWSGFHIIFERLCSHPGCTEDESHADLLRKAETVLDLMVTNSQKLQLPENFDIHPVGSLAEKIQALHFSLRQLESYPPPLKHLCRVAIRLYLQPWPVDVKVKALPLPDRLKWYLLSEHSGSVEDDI
UniProt Q8N5I2: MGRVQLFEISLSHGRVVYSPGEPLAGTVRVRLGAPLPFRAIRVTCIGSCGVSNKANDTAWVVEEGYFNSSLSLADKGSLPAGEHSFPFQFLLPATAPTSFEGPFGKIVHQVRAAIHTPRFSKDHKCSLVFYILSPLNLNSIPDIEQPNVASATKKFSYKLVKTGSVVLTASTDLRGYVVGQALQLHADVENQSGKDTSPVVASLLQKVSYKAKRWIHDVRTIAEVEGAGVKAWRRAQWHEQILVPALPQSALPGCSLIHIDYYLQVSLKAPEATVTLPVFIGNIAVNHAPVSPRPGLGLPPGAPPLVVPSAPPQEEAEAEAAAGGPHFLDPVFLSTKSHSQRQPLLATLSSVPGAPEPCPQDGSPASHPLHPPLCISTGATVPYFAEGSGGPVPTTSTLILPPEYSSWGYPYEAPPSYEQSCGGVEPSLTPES
UniProt Q2TAZ0: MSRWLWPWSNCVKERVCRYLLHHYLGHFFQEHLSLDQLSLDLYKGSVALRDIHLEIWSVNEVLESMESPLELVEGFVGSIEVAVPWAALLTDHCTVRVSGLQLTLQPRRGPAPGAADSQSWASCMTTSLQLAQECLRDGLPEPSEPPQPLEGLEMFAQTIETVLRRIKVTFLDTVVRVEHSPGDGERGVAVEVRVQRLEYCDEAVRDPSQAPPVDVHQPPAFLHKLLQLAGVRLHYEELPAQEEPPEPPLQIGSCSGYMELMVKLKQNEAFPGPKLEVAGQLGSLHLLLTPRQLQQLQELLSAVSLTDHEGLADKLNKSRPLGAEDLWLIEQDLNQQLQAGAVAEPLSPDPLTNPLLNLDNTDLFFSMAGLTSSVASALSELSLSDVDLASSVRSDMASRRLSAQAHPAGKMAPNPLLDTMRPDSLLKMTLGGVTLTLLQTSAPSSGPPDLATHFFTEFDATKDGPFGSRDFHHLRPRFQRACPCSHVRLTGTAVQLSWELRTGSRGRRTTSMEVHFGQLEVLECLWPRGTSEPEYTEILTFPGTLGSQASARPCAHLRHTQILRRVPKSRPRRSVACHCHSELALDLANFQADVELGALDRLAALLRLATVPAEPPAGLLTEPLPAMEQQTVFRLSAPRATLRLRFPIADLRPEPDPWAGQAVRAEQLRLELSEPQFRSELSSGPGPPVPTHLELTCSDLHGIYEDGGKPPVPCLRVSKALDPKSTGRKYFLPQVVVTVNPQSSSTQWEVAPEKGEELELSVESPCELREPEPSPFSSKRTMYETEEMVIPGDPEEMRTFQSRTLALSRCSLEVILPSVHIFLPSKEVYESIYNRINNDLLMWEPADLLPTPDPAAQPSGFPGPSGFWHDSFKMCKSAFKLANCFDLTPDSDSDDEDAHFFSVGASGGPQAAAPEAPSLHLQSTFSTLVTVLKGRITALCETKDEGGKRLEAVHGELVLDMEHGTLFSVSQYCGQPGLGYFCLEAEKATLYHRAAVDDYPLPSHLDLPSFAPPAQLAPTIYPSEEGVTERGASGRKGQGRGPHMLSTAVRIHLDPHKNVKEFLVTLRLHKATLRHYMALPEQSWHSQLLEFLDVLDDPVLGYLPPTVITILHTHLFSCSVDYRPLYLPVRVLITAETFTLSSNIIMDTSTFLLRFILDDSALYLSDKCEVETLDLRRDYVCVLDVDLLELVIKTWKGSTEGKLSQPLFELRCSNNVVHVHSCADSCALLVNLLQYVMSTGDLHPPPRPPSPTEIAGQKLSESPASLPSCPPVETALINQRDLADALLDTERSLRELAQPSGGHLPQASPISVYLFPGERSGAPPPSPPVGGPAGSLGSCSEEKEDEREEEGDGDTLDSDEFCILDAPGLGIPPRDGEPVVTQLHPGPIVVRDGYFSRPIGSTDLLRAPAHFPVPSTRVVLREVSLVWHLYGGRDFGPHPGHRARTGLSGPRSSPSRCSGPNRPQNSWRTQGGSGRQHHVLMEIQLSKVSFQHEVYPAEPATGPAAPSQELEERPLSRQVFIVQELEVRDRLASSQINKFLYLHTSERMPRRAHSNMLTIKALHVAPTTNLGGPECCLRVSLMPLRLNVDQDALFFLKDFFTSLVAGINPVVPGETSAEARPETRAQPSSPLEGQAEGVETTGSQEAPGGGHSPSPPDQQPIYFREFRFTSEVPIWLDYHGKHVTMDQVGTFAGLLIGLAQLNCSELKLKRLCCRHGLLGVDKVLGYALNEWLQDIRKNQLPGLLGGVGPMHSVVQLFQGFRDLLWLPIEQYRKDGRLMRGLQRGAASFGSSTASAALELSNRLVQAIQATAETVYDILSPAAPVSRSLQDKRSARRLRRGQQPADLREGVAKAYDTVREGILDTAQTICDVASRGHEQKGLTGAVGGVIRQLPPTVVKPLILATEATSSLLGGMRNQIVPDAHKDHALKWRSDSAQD
UniProt Q8N6S5: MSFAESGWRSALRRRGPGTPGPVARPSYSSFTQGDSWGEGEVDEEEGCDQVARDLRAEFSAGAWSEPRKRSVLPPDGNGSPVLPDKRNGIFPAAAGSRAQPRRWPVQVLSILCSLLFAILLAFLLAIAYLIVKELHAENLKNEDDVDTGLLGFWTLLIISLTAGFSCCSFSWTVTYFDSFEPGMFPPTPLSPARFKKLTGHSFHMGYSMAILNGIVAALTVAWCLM
UniProt P98194: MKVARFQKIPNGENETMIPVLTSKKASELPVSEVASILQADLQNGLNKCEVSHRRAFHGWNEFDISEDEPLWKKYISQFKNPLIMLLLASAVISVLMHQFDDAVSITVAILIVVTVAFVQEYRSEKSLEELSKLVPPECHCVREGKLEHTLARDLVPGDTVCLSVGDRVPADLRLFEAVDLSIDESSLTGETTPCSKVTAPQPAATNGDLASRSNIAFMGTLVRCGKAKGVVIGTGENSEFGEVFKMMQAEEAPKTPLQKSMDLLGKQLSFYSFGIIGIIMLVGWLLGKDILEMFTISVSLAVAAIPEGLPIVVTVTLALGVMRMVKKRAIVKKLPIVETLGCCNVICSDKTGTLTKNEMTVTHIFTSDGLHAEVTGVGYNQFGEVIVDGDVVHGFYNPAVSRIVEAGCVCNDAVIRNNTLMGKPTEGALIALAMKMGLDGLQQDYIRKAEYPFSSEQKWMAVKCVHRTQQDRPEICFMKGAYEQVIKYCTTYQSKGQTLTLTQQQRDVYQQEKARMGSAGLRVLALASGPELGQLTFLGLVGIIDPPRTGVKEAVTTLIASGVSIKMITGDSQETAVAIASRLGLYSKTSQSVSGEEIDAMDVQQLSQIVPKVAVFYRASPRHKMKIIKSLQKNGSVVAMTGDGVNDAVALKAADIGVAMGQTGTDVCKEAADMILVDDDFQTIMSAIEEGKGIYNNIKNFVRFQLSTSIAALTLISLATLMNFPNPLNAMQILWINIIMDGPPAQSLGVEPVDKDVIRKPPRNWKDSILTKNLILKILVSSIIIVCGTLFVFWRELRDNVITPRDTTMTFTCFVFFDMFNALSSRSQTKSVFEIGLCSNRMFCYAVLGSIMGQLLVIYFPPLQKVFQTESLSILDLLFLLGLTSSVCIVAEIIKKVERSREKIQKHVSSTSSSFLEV
UniProt P08243: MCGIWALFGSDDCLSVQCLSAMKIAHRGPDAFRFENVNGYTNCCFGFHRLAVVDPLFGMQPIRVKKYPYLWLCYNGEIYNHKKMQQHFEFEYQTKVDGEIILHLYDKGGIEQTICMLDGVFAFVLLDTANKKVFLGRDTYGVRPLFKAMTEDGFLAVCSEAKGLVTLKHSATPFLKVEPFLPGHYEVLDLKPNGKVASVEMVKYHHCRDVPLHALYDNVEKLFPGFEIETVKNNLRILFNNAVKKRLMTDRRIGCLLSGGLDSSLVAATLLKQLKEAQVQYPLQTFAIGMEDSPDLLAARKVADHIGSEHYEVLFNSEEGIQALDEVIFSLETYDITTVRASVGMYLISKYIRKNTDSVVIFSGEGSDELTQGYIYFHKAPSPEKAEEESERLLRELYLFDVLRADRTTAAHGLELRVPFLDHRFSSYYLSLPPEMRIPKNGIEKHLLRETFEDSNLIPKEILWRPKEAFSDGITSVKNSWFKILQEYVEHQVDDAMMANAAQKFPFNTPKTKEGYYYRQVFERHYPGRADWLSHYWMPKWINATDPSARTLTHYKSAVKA
UniProt Q9H0F7: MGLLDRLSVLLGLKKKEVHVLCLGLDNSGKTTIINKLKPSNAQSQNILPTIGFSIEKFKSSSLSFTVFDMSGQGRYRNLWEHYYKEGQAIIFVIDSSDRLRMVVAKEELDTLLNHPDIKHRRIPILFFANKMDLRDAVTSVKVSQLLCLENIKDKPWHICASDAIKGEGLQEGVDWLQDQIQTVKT

Assays:
Test in all cases: log2 fold change, soluble protein after heating vs DMSO (PISA); higher = thermal stabilisation; K562 cells, 10 uM, 30 min; active = over 0.2 and 3.5 SD of the protein, either way, in both replicates (recomputed)
[1] = compound: CC[C@@H]1C(=O)N(C)c2cnc(Nc3ccc(C(=O)NC4CCN(C)CC4)cc3OC)nc2N1C1CCCC1
In short: (§1)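 Soluble protein was quantified by TMTpro 16plex LC-MS/MS after channel sums were equalised. It was obtained as the supernatant after 21,000xg for 90 min from pooled aliquots of K562 cells (2×10^6 cells/mL, 10 μM compound, 30 min) heated for 3 min across 48°C-58°C and extracted in PBS with 0.5% NP-40 at 4°C. Thermal stability values are relative to control samples and come from duplicates. They are given as log2 fold changes.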

volasertib = compound: CC[C@@H]1C(=O)N(C)c2cnc(Nc3ccc(C(=O)N[C@H]4CC[C@H](N5CCN(CC6CC6)CC5)CC4)cc3OC)nc2N1C(C)C [volasertib]
In short: as §1

[2] = compound: CC[C@H](C)N1C=C(C2=C(C=C(C=C21)C3=CN=C(C=C3)N4CCNCC4)C(=O)NCC5=C(C=C(NC5=O)C)C)C
In short: as §1

epoxomicin = compound: CC[C@H](C)[C@@H](C(=O)N[C@@H]([C@@H](C)O)C(=O)N[C@@H](CC(C)C)C(=O)[C@]1(CO1)C)NC(=O)[C@H]([C@@H](C)CC)N(C)C(=O)C [epoxomicin]
In short: as §1

[3] = compound: CCn1cc(-c2ccnc3[nH]c(-c4cccc(CN(C)C)c4)cc23)c(-c2ccc(NC(=O)N(C)C)cc2)n1
In short: as §1

[4] = compound: CN(C)CC(=O)Nc1ccc2[nH]c(=O)c3ccccc3c2c1
In short: as §1

[5] = compound: CN1C2=C(C3=C1C(=O)N(N=C3)CC4=CC(=CC=C4)N)SC(=C2)S(=O)C
In short: as §1

[6] = compound: CN1CCC(CNc2ccc3ncc(-c4cccc(OC(F)(F)F)c4)n3n2)CC1
In short: as §1

saracatinib = compound: CN1CCN(CCOc2cc(OC3CCOCC3)c3c(Nc4c(Cl)ccc5c4OCO5)ncnc3c2)CC1 [saracatinib]
In short: as §1

sotrastaurin = compound: CN1CCN(c2nc(C3=C(c4c[nH]c5ccccc45)C(=O)NC3=O)c3ccccc3n2)CC1 [sotrastaurin]
In short: as §1

Tubastatin A = compound: CN1CCc2c(c3ccccc3n2Cc2ccc(C(=O)NO)cc2)C1 [Tubastatin A]
In short: as §1

[7] = compound: CNC(=O)C1=CC=CC=C1NC2=NC(=NC=C2Cl)NC3=C(C=C(C=C3)N4CCOCC4)OC
In short: as §1

defactinib = compound: CNC(=O)c1ccc(Nc2ncc(C(F)(F)F)c(NCc3nccnc3N(C)S(C)(=O)=O)n2)cc1 [defactinib]
In short: as §1

rucaparib = compound: CNCc1ccc(-c2[nH]c3cc(F)cc4c3c2CCNC4=O)cc1 [rucaparib]
In short: as §1

[8] = compound: CNc1nc(-c2ccc3c(N)n[nH]c3c2)cc(N2C[C@@H](C(=O)NC3CCCCC3)CC[C@H]2C)n1
In short: as §1

encorafenib = compound: COC(=O)N[C@@H](C)CNc1nccc(-c2cn(C(C)C)nc2-c2cc(Cl)cc(NS(C)(=O)=O)c2F)n1 [encorafenib]
In short: as §1

[9] = compound: COC(=O)[C@H](CCSC)NC(=O)C1=C(C=C(C=C1)NC[C@H](CS)N)C2=CC=CC=C2
In short: as §1

rosiglitazone = compound: CN(CCOC1=CC=C(C=C1)C[C@H]2C(=O)NC(=O)S2)C3=CC=CC=N3 (racemic) [rosiglitazone]
In short: as §1

[10] = compound: CCn1c(C(=O)N(C2CC2)C2CC2)cc2c3c(ncn3C)c(Nc3cc(C)n(C)n3)nc21
In short: as §1

alvocidib = compound: CN1CC[C@H](c2c(O)cc(O)c3c(=O)cc(-c4ccccc4Cl)oc23)[C@H](O)C1 [alvocidib]
In short: as §1

Measured: log2 fold change

ATL2 (UniProt Q8NHH9)
inactive: [1] 0.031 | volasertib 0.037 | [2] 0.066 | epoxomicin 0.092 | [3] -0.127 | [4] 0.028 | [5] -0.078 | [6] -0.032 | saracatinib -0.032 | sotrastaurin 0.05 | Tubastatin A 0.047 | [7] 0.005 | defactinib 0.008 | rucaparib 0.019 | [8] 0.035 | encorafenib 0.005 | [9] 0.008

ASNSD1 (UniProt Q9NWL6)
inactive: [2] 0.091 | epoxomicin -0.006 | rosiglitazone -0.112 | sotrastaurin -0.119

ATP8B2 isoform 3 (UniProt P98198)
inactive: [4] -0.162 | defactinib 0.018 | [9] 0.063

ATF7 isoform 6 (UniProt P17544)
active: saracatinib 0.477
inactive: volasertib -0.014 | [2] 0.041 | epoxomicin -0.028 | [4] 0.03 | [5] -0.06 | sotrastaurin -0.105 | Tubastatin A -0.088 | [7] -0.096 | defactinib 0.063 | [8] 0.034 | [9] -0.037

ATP13A3 (UniProt Q9H7F0)
inactive: [1] -0.085 | volasertib 0.077 | [2] 0.016 | epoxomicin 0 | [3] -0.022 | [4] -0.012 | [5] -0.011 | saracatinib -0.029 | sotrastaurin 0.048 | Tubastatin A 0.002 | [7] -0.005 | defactinib -0.014 | rucaparib 0.091 | [8] 0.013 | encorafenib 0.037 | [9] 0.037
active: [6] -0.401

Two successive records already listed, for reference:
ATL2 (UniProt Q8NHH9)
inactive: [1] 0.031 | volasertib 0.037 | [2] 0.066 | epoxomicin 0.092 | [3] -0.127 | [4] 0.028 | [5] -0.078 | [6] -0.032 | saracatinib -0.032 | sotrastaurin 0.05 | Tubastatin A 0.047 | [7] 0.005 | defactinib 0.008 | rucaparib 0.019 | [8] 0.035 | encorafenib 0.005 | [9] 0.008

ASNSD1 (UniProt Q9NWL6)
inactive: [2] 0.091 | epoxomicin -0.006 | rosiglitazone -0.112 | sotrastaurin -0.119

Further entries

ASB6 (UniProt Q9NWX5)
inactive: [1] 0.047 | volasertib -0.321 | [2] 0.028 | epoxomicin -0.094 | [3] -0.076 | [4] 0.041 | [6] -0.083 | sotrastaurin -0.029 | [7] -0.078 | defactinib -0.033 | rucaparib 0.124 | encorafenib -0.094 | [9] 0.031

ARRDC1 (UniProt Q8N5I2)
inactive: [1] -0.063 | volasertib -0.137 | [2] -0.09 | epoxomicin -0.057 | [3] 0 | [4] 0.023 | [5] -0.038 | [6] 0.027 | saracatinib 0.17 | sotrastaurin -0.026 | Tubastatin A 0.004 | [7] -0.06 | defactinib -0.046 | rucaparib 0.075 | [8] -0.02 | encorafenib -0.01 | [9] -0.006

ARSA (UniProt P15289)
inactive: volasertib 0.025 | [2] 0.107 | epoxomicin -0.003 | [10] -0.134 | [3] -0.007 | [4] 0.081 | rosiglitazone -0.17 | [5] 0.022 | [6] -0.057 | saracatinib -0.032 | sotrastaurin 0.06 | alvocidib -0.07 | Tubastatin A -0.058 | [7] 0.001 | defactinib -0.079 | [8] -0.035 | [9] 0.066

ASXL2 (UniProt Q76L83)
inactive: [10] 0.169 | [5] 0.198 | saracatinib -0.211 | [7] -0.466 | [8] 0.165

ATG2A (UniProt Q2TAZ0)
inactive: epoxomicin -0.209 | [3] 0.14 | [6] 0.211

ARL6IP6 (UniProt Q8N6S5)
inactive: [1] 0.154 | volasertib -0.007 | [2] -0.043 | epoxomicin -0.086 | [3] 0.004 | [4] 0.004 | [5] 0.029 | [6] 0.01 | saracatinib 0.192 | sotrastaurin 0.005 | Tubastatin A -0.014 | [7] -0.099 | defactinib -0.053 | rucaparib 0.009 | [8] 0.004 | encorafenib 0.015 | [9] -0.035

ATP2C1 isoform 3 (UniProt P98194)
inactive: volasertib -0.013 | [10] 0.146 | rosiglitazone 0.034 | alvocidib -0.149 | [7] -0.018

ATP6V0C (UniProt P27449)
inactive: volasertib -0.049 | [2] -0.082 | epoxomicin -0.068 | [10] 0.038 | [3] -0.126 | [4] 0.073 | rosiglitazone -0.096 | [5] -0.052 | [6] 0.059 | saracatinib 0.067 | sotrastaurin -0.261 | alvocidib 0.087 | Tubastatin A 0.34 | [7] 0.213 | defactinib -0.121 | [8] 0.004 | [9] 0.026

ARPIN isoform 2 (UniProt Q7Z6K5)
inactive: volasertib -0.361 | [2] 0.133 | [10] -0.045 | [3] -0.053 | [4] 0 | rosiglitazone 0.145 | [6] -0.16 | Tubastatin A 0.003 | [7] -0.027 | defactinib -0.173 | [9] 0.005

ATP13A2 (UniProt Q9NQ11)
inactive: [1] -0.141 | volasertib -0.103 | [2] -0.074 | epoxomicin 0.003 | [3] -0.031 | [4] -0.002 | [5] 0.058 | saracatinib 0.061 | sotrastaurin 0.036 | Tubastatin A 0.026 | [7] 0.015 | defactinib -0.116 | rucaparib 0 | [8] 0.039 | encorafenib -0.027 | [9] 0.026
active: [6] -0.509

ASNS (UniProt P08243)
inactive: [1] -0.01 | volasertib 0.015 | [2] 0.008 | epoxomicin 0.021 | [3] -0.051 | [4] -0.008 | [5] -0.064 | [6] -0.037 | saracatinib 0.041 | sotrastaurin 0.016 | Tubastatin A -0.002 | [7] -0.036 | defactinib -0.018 | rucaparib -0.017 | [8] -0.015 | encorafenib -0.009 | [9] -0.001

ARL6 isoform 2 (UniProt Q9H0F7)
inactive: [4] -0.005 | defactinib 0.022 | [9] 0.108

ARL13B (UniProt Q3SXY8)
inactive: [1] 0.025 | [2] -0.022 | epoxomicin 0.069 | [10] -0.067 | [3] -0.091 | [4] -0.088 | rosiglitazone 0.042 | [5] -0.008 | [6] -0.017 | saracatinib 0.091 | sotrastaurin 0.16 | Tubastatin A -0.104 | [7] -0.021 | defactinib 0.035 | rucaparib 0.092 | [8] 0.004 | encorafenib 0.049 | [9] -0.039

ARMC8 isoform 6 (UniProt Q8IUR7)
inactive: [2] 0.048 | [4] 0.016 | [7] -0.088 | defactinib -0.114 | [9] 0.108

ATP2B2 (UniProt Q01814)
inactive: volasertib -0.227 | [10] -0.118 | [3] -0.151 | [4] 0.218 | [5] -0.065 | [6] 0.015 | saracatinib -0.008 | sotrastaurin 0.117 | alvocidib -0.218 | [7] 0.043 | defactinib 0.047 | [8] 0.279 | [9] -0.164
